These are yes or no findings as the source states them, for the method shown. Binding seen in cells or lysates may run through a third protein. These calls come from enrichment with a bait or labelling near it, and not all partners need be listed.

Sequences of proteins named here, by UniProt entry; tags and fusion partners are left off. Residues count along the entry.
UniProt P09012: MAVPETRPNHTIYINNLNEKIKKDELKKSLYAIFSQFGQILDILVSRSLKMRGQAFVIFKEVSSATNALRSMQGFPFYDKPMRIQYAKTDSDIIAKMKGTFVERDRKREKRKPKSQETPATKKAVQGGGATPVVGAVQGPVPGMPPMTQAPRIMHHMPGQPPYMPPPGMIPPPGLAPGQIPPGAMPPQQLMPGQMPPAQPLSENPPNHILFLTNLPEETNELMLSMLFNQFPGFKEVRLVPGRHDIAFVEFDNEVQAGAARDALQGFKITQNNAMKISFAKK
UniProt Q9Y262: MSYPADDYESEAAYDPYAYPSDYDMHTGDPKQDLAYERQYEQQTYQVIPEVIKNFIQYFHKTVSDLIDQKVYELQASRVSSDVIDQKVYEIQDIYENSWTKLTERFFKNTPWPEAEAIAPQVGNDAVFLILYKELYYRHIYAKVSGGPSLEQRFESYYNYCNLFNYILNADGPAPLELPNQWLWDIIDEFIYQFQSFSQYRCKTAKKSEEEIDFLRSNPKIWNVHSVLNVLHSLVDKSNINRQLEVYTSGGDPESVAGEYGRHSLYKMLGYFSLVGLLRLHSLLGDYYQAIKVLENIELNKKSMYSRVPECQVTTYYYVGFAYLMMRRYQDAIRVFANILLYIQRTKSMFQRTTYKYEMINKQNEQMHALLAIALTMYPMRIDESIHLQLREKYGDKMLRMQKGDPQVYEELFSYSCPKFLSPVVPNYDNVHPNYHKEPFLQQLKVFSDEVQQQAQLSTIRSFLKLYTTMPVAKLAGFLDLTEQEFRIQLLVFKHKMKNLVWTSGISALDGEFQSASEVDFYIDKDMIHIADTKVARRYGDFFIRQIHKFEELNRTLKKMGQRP
UniProt O43242: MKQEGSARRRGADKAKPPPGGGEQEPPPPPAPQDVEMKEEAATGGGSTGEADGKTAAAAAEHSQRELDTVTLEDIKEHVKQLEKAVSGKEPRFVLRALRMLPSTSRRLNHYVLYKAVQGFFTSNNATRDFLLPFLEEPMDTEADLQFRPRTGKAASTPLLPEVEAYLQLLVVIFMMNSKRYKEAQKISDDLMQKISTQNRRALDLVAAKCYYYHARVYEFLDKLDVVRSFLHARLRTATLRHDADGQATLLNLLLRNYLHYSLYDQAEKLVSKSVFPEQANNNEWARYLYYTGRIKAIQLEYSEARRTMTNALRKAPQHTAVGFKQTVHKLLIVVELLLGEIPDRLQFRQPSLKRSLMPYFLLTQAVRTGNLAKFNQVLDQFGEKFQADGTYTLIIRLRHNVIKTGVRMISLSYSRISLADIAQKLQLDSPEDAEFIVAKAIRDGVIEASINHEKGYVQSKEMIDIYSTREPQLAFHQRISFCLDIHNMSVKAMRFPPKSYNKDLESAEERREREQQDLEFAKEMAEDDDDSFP
UniProt Q9P258: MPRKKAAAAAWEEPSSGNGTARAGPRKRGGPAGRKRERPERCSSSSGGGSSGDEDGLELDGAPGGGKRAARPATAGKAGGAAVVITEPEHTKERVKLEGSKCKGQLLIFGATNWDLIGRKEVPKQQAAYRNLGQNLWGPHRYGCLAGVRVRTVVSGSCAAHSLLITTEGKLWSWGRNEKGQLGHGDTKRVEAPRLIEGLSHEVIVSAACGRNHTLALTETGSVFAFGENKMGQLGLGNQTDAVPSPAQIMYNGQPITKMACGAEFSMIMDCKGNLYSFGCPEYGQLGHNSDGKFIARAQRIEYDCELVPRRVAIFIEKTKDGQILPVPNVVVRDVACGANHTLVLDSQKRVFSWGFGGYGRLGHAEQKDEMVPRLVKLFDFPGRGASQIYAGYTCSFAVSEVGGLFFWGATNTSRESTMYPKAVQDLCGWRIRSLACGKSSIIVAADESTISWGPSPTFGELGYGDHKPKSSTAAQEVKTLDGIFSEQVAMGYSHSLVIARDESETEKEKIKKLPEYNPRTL
UniProt P23284, residues 34-216: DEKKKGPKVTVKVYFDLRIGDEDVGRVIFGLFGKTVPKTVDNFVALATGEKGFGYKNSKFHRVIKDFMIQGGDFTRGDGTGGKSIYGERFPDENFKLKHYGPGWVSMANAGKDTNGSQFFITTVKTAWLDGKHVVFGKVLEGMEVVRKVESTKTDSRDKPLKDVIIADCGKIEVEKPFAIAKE
UniProt O95168: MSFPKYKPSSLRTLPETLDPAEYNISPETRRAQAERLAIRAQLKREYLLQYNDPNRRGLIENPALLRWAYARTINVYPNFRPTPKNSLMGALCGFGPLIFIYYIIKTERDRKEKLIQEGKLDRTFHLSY
UniProt O95202, residues 116-739: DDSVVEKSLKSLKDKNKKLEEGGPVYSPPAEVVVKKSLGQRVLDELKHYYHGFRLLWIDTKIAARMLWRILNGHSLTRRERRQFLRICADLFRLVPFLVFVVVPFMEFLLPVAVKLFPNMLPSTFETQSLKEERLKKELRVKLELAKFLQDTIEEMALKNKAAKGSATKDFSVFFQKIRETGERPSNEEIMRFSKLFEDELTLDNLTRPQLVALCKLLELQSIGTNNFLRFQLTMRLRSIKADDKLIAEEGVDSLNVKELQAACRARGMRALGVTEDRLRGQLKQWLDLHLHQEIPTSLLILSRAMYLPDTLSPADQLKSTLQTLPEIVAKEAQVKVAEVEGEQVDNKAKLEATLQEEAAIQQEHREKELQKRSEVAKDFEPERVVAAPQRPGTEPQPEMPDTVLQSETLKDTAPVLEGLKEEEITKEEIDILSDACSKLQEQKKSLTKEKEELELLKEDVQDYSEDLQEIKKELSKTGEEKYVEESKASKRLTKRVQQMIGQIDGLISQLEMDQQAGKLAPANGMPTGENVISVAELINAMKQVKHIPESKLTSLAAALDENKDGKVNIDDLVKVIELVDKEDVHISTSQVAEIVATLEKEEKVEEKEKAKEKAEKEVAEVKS
UniProt P20042: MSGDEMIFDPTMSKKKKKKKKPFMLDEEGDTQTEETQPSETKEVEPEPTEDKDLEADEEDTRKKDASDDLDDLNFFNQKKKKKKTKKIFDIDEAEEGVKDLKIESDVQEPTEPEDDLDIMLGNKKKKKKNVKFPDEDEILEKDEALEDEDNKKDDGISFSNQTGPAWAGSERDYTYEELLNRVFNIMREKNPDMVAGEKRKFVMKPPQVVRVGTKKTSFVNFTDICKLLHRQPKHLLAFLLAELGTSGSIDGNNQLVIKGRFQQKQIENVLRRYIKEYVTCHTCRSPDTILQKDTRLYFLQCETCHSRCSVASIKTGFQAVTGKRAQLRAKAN
UniProt Q9NR30: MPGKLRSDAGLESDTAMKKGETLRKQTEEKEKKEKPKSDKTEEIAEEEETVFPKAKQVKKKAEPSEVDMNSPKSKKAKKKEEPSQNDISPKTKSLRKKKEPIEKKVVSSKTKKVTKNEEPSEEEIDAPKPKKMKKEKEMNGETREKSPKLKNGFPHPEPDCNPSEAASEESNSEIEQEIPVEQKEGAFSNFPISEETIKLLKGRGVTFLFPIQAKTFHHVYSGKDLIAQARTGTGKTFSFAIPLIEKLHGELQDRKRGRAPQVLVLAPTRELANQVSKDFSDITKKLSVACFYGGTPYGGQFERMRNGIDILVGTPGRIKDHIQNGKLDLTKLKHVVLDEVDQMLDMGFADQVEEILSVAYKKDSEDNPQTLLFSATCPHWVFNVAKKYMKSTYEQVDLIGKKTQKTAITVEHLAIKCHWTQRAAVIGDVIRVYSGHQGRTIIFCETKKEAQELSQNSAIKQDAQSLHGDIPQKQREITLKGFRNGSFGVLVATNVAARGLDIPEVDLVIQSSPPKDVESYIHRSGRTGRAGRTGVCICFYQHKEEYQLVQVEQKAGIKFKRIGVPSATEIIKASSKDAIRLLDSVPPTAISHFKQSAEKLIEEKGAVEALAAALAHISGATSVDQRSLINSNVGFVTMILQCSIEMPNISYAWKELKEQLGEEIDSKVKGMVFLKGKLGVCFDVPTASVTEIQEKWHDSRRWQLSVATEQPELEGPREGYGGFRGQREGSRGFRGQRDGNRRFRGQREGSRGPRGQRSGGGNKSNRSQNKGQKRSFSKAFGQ
UniProt P35998: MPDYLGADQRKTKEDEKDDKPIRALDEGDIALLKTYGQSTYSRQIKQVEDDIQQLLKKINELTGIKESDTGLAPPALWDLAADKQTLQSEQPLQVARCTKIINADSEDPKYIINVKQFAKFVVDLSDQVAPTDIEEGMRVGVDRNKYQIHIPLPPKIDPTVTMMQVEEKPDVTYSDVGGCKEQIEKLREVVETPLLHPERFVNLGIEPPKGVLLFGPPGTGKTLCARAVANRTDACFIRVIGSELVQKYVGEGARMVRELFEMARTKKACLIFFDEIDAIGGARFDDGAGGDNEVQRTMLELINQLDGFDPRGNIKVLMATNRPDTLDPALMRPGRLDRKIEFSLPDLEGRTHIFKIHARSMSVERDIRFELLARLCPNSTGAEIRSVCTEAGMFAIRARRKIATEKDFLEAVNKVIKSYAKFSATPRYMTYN
UniProt P20700: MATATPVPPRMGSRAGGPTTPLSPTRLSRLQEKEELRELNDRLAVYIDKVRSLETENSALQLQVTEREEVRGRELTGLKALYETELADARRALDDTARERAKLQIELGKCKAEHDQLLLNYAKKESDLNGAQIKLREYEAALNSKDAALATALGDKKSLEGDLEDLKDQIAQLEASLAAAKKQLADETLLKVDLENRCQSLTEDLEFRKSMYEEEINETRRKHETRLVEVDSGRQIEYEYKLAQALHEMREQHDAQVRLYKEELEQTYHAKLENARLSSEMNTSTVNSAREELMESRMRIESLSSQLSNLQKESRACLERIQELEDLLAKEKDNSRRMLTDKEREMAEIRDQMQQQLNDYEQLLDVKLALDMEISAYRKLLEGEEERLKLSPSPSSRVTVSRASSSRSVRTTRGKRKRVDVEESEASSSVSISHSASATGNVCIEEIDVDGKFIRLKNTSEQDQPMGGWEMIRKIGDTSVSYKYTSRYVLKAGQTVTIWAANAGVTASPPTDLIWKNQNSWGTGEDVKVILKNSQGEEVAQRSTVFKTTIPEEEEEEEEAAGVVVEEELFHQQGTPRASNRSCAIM
UniProt O43684: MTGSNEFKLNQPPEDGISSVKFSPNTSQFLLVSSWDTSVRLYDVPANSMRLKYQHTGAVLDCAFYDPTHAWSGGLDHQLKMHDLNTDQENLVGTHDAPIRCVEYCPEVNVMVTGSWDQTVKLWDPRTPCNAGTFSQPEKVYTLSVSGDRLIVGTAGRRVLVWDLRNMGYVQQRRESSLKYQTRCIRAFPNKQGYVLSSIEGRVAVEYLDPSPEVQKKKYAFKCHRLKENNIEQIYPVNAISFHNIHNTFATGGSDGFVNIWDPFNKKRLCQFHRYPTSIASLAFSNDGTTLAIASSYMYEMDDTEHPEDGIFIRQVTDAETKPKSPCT
UniProt P51149: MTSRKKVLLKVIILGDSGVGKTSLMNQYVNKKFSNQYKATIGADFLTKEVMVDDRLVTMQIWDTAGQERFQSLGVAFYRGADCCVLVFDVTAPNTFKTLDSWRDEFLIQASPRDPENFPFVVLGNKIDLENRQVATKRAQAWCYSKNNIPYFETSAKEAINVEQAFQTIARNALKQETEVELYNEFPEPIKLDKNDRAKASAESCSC
UniProt P35080: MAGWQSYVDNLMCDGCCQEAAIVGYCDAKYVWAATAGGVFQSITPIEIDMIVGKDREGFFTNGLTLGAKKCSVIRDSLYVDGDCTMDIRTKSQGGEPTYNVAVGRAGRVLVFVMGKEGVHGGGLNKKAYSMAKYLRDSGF
UniProt Q99873: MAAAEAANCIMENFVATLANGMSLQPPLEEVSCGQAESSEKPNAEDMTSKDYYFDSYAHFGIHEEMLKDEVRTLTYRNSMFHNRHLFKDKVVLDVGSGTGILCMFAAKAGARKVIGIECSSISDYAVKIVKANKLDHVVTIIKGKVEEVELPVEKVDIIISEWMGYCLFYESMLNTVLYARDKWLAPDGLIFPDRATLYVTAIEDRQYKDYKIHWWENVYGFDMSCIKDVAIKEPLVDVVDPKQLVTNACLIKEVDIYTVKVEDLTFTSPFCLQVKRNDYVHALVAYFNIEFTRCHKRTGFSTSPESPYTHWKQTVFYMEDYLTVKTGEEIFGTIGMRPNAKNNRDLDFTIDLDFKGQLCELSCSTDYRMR
UniProt P17568: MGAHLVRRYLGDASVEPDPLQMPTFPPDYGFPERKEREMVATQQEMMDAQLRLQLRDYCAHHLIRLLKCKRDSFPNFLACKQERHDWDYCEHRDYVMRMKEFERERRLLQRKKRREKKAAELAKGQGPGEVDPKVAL
UniProt P62820: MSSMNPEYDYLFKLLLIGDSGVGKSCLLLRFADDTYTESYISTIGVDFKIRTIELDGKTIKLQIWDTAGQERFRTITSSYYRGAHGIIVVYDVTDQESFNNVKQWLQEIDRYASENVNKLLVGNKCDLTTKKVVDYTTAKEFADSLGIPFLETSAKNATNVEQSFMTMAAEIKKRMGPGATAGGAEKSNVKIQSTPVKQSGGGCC

Binding data for 35 molecules are collected here from PMC12124498.

The experiment has as its target U2AF2-TurboID-HA (human) (UniProt P26368). Put plainly: proximity labelling; U2AF2-TurboID-HA induced with doxycycline for 4 h in pluripotent hiPSC; biotinylated proteins purified on streptavidin magnetic beads, LC-MS with label-free quantification; hits: Log2ΔLFQ >= 2 and p <= 0.05, pluripotent against mesoderm U2AF2-TurboID samples.

For the molecule SNRPA (from UniProt P09012 1-282), the binding result is “binds”.

Consider TUBB4B (from UniProt P68371 1-445), for which the binding result is given as “binds”.

For the molecule EIF3L (from UniProt Q9Y262 1-564), the binding entry was “binds”. PSMD3 (from UniProt O43242 1-534): the binding result is given as “binds”. Turning to COPA (from UniProt P53621 1-1224), the binding entry is on record as “binds”.

RCC2 (from UniProt Q9P258 1-522): the binding result was “binds”. PPIB (from UniProt P23284 34-216): the binding entry is given as “binds”. Consider SLC25A1 (from UniProt P53007 14-311), for which the binding result was “binds”. Turning to NDUFB4 (from UniProt O95168 1-129), the binding entry is “binds”. The result for SPTBN1 (from UniProt Q01082 1-2364) reads “binds”; that for LETM1 (from UniProt O95202 116-739), “binds”. On to EIF2S2 (from UniProt P20042 1-333), for which the binding result is on record as “binds”.

On to CCT7 (from UniProt Q99832 1-543), for which the binding entry is on record as “binds”. For DDX21 (from UniProt Q9NR30 1-783), the binding result is “binds”. Take PSMC2 (from UniProt P35998 1-433): the binding entry is given as “binds”. With LMNB1 (from UniProt P20700 1-586), the binding entry is given as “binds”. Consider EIF3D (from UniProt O15371 1-548), for which the binding result is “binds”. As for ZNF207 (from UniProt O43670 1-478), the entry is “binds”. Regarding BUB3 (from UniProt O43684 1-328), the binding result is given as “binds”. On to RAB7A (from UniProt P51149 1-207), for which the binding entry was “binds”. As for TUBB3 (from UniProt Q13509 1-450), the entry is “binds”. For PFN2 (from UniProt P35080 1-140), the binding result is on record as “binds”. On to ENAH (from UniProt Q8N8S7 1-591), for which the binding entry is “binds”. In the case of PRMT1 (from UniProt Q99873 1-371), the binding entry was “binds”.

NDUFB7 (from UniProt P17568 1-137): the binding result is reported as “binds”.

Consider RAB1A (from UniProt P62820 1-205), for which the binding result is reported as “binds”.

B1: HSD11B2 (protein, UniProt P80365 1-405)
chain: MERWPWPSGGAWLLVAARALLQLLRSDLRLGRPLLAALALLAALDWLCQRLLPPPAALAVLAAAGWIALSRLARPQRLPVATRAVLITGCDSGFGKETAKKLDSMGFTVLATVLELNSPGAIELRTCCSPRLRLLQMDLTKPGDISRVLEFTKAHTTSTGLWGLVNNAGHNEVVADAELSPVATFRSCMEVNFFGALELTKGLLPLLRSSRGRIVTVGSPAGDMPYPCLGAYGTSKAAVALLMDTFSCELLPWGVKVSIIQPGCFKTESVRNVGQWEKRKQLLLANLPQELLQAYGKDYIEHLHGQFLHSLRLAMSDLTPVVDAITDALLAARPRRRYYPGQGLGLMYFIHYYLPEGLRRRFLQAFFISHCLPRALQPGQPGTTPPQDAAQDPNLSPGPSPAVAR
B1: the binding entry is listed as “binds”.

B2: LPCAT1 (protein, UniProt Q8NF37 1-534)
chain: MRLRGCGPRAAPASSAGASDARLLAPPGRNPFVHELRLSALQKAQVALMTLTLFPVRLLVAAAMMLLAWPLALVASLGSAEKEPEQPPALWRKVVDFLLKAIMRTMWFAGGFHRVAVKGRQALPTEAAILTLAPHSSYFDAIPVTMTMSSIVMKAESRDIPIWGTLIQYIRPVFVSRSDQDSRRKTVEEIKRRAQSNGKWPQIMIFPEGTCTNRTCLITFKPGAFIPGAPVQPVVLRYPNKLDTITWTWQGPGALEILWLTLCQFHNQVEIEFLPVYSPSEEEKRNPALYASNVRRVMAEALGVSVTDYTFEDCQLALAEGQLRLPADTCLLEFARLVRGLGLKPEKLEKDLDRYSERARMKGGEKIGIAEFAASLEVPVSDLLEDMFSLFDESGSGEVDLRECVVALSVVCRPARTLDTIQLAFKMYGAQEDGSVGEGDLSCILKTALGVAELTVTDLFRAIDQEEKGKITFADFHRFAEMYPAFAEEYLYPDQTHFESCAETSPAPIPNGFCADFSPENSDAGRKPVRKKLD
Turning to B2, the binding result is “binds”.

B3: SLC25A3 (protein, UniProt Q00325 50-362)
chain: AVEEQYSCDYGSGRFFILCGLGGIISCGTTHTALVPLDLVKCRMQVDPQKYKGIFNGFSVTLKEDGVRGLAKGWAPTFLGYSMQGLCKFGFYEVFKVLYSNMLGEENTYLWRTSLYLAASASAEFFADIALAPMEAAKVRIQTQPGYANTLRDAAPKMYKEEGLKAFYKGVAPLWMRQIPYTMMKFACFERTVEALYKFVVPKPRSECSKPEQLVVTFVAGYIAGVFCAIVSHPADSVVSVLNKEKGSSASLVLKRLGFKGVWKGLFARIIMIGTLTALQWFIYDSVKVYFRLPRPPPPEMPESLKKKLGLTQ
Consider B3, for which the binding result is given as “binds”.

B4: FADS2 (protein, UniProt O95864 1-444)
chain: MGKGGNQGEGAAEREVSVPTFSWEEIQKHNLRTDRWLVIDRKVYNITKWSIQHPGGQRVIGHYAGEDATDAFRAFHPDLEFVGKFLKPLLIGELAPEEPSQDHGKNSKITEDFRALRKTAEDMNLFKTNHVFFLLLLAHIIALESIAWFTVFYFGNGWIPTLITAFVLATSQAQAGWLQHDYGHLSVYRKPKWNHLVHKFVIGHLKGASANWWNHRHFQHHAKPNIFHKDPDVNMLHVFVLGEWQPIEYGKKKLKYLPYNHQHEYFFLIGPPLLIPMYFQYQIIMTMIVHKNWVDLAWAVSYYIRFFITYIPFYGILGALLFLNFIRFLESHWFVWVTQMNHIVMEIDQEAYRDWFSSQLTATCNVEQSFFNDWFSGHLNFQIEHHLFPTMPRHNLHKIAPLVKSLCAKHGIEYQEKPLLRALLDIIRSLKKSGKLWLDAYLHK
Regarding B4, the binding entry is “binds”.

B5: MCM5 (protein, UniProt P33992 1-734)
chain: MSGFDDPGIFYSDSFGGDAQADEGQARKSQLQRRFKEFLRQYRVGTDRTGFTFKYRDELKRHYNLGEYWIEVEMEDLASFDEDLADYLYKQPAEHLQLLEEAAKEVADEVTRPRPSGEEVLQDIQVMLKSDASPSSIRSLKSDMMSHLVKIPGIIIAASAVRAKATRISIQCRSCRNTLTNIAMRPGLEGYALPRKCNTDQAGRPKCPLDPYFIMPDKCKCVDFQTLKLQELPDAVPHGEMPRHMQLYCDRYLCDKVVPGNRVTIMGIYSIKKFGLTTSRGRDRVGVGIRSSYIRVLGIQVDTDGSGRSFAGAVSPQEEEEFRRLAALPNVYEVISKSIAPSIFGGTDMKKAIACLLFGGSRKRLPDGLTRRGDINLLMLGDPGTAKSQLLKFVEKCSPIGVYTSGKGSSAAGLTASVMRDPSSRNFIMEGGAMVLADGGVVCIDEFDKMREDDRVAIHEAMEQQTISIAKAGITTTLNSRCSVLAAANSVFGRWDETKGEDNIDFMPTILSRFDMIFIVKDEHNEERDVMLAKHVITLHVSALTQTQAVEGEIDLAKLKKFIAYCRVKCGPRLSAEAAEKLKNRYIIMRSGARQHERDSDRRSSIPITVRQLEAIVRIAEALSKMKLQPFATEADVEEALRLFQVSTLDAALSGTLSGVEGFTSQEDQEMLSRIEKQLKRRFAIGSQVSEHSIIKDFTKQKYPEHAIHKVLQLMLRRGEIQHRMQRKVLYRLK
Turning to B5, the binding entry was “binds”.

B6: RARS (protein, UniProt P54136 1-660)
chain: MDVLVSECSARLLQQEEEIKSLTAEIDRLKNCGCLGASPNLEQLQEENLKLKYRLNILRKSLQAERNKPTKNMINIISRLQEVFGHAIKAAYPDLENPPLLVTPSQQAKFGDYQCNSAMGISQMLKTKEQKVNPREIAENITKHLPDNECIEKVEIAGPGFINVHLRKDFVSEQLTSLLVNGVQLPALGENKKVIVDFSSPNIAKEMHVGHLRSTIIGESISRLFEFAGYDVLRLNHVGDWGTQFGMLIAHLQDKFPDYLTVSPPIGDLQVFYKESKKRFDTEEEFKKRAYQCVVLLQGKNPDITKAWKLICDVSRQELNKIYDALDVSLIERGESFYQDRMNDIVKEFEDRGFVQVDDGRKIVFVPGCSIPLTIVKSDGGYTYDTSDLAAIKQRLFEEKADMIIYVVDNGQSVHFQTIFAAAQMIGWYDPKVTRVFHAGFGVVLGEDKKKFKTRSGETVRLMDLLGEGLKRSMDKLKEKERDKVLTAEELNAAQTSVAYGCIKYADLSHNRLNDYIFSFDKMLDDRGNTAAYLLYAFTRIRSIARLANIDEEMLQKAARETKILLDHEKEWKLGRCILRFPEILQKILDDLFLHTLCDYIYELATAFTEFYDSCYCVEKDRQTGKILKVNMWRMLLCEAVAAVMAKGFDILGIKPVQRM
On to B6, for which the binding entry is reported as “binds”.

B7: CLDN6 (protein, UniProt P56747 1-220)
chain: MASAGMQILGVVLTLLGWVNGLVSCALPMWKVTAFIGNSIVVAQVVWEGLWMSCVVQSTGQMQCKVYDSLLALPQDLQAARALCVIALLVALFGLLVYLAGAKCTTCVEEKDSKARLVLTSGIVFVISGVLTLIPVCWTAHAIIRDFYNPLVAEAQKRELGASLYLGWAASGLLLLGGGLLCCTCPSGGSQGPSHYMARYSTSAPAISRGPSEYPTKNYV
Take B7: the binding entry was “binds”.

B8: MBOAT7 (protein, UniProt Q96N66 1-472)
chain: MSPEEWTYLVVLLISIPIGFLFKKAGPGLKRWGAAAVGLGLTLFTCGPHTLHSLVTILGTWALIQAQPCSCHALALAWTFSYLLFFRALSLLGLPTPTPFTNAVQLLLTLKLVSLASEVQDLHLAQRKEMASGFSKGPTLGLLPDVPSLMETLSYSYCYVGIMTGPFFRYRTYLDWLEQPFPGAVPSLRPLLRRAWPAPLFGLLFLLSSHLFPLEAVREDAFYARPLPARLFYMIPVFFAFRMRFYVAWIAAECGCIAAGFGAYPVAAKARAGGGPTLQCPPPSSPEKAASLEYDYETIRNIDCYSTDFCVRVRDGMRYWNMTVQWWLAQYIYKSAPARSYVLRSAWTMLLSAYWHGLHPGYYLSFLTIPLCLAAEGRLESALRGRLSPGGQKAWDWVHWFLKMRAYDYMCMGFVLLSLADTLRYWASIYFCIHFLALAALGLGLALGGGSPSRRKAASQPTSLAPEKLREE
With B8, the binding result is recorded as “binds”.

B9: APRT (protein, UniProt P07741 1-180)
chain: MADSELQLVEQRIRSFPDFPTPGVVFRDISPVLKDPASFRAAIGLLARHLKATHGGRIDYIAGLDSRGFLFGPSLAQELGLGCVLIRKRGKLPGPTLWASYSLEYGKAELEIQKDALEPGQRVVVVDDLLATGGTMNAACELLGRLQAEVLECVSLVELTSLKGREKLAPVPFFSLLQYE
On to B9, for which the binding entry is “binds”.
